These are yes or no findings as the source states them, for the method shown. A result given as binding can be weak or reduced; the word gives no strength. Where a sequence is shown, tags or fusion partners need not be part of it. For some assays here: Binding seen in cells or lysates may run through a third protein.
How the values were obtained:
[1] = molecular target: T1, FzlA fused to the T18 or T25 domain of adenylate cyclase (bacterial two-hybrid) (Caulobacter crescentus), A0A0H3; test: two-hybrid; bacterial two-hybrid (T18 and T25 adenylate cyclase fusions) in E. coli BTH101, blue colonies on X-gal with 0.5 mM IPTG; details: remark: other sources report otherwise
T1 chain: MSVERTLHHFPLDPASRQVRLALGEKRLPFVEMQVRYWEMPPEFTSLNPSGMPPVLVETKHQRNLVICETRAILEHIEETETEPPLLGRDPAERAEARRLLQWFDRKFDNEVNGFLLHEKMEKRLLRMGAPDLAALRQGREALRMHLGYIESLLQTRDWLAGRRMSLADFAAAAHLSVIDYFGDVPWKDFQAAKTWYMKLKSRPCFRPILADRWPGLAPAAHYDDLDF

[2] = molecular target: T2, FzlA as two differently tagged copies in C. crescentus strain EG2452 (3xFLAG‐FzlA and mCherry‐FzlA) (Caulobacter crescentus), A0A0H3; test: co-IP; C. crescentus EG2452 lysate without crosslinking; 3xFLAG-FzlA precipitated with anti-FLAG agarose, eluted with FLAG peptide, immunoblot; 20 mM HEPES pH 7.5, 100 mM NaCl, 20% glycerol, 1% IGEPAL CA-630, 0.5% sodium deoxycholate, 2 mM EDTA; details: remark: other sources report otherwise
T2 chain: T1 chain

B1: FzlA fused to the T18 or T25 domain of adenylate cyclase (bacterial two-hybrid), A0A0H3CDY2 1-228 (protein)
chain: T1 chain
- binding [1]: binds

B2: FzlA as two differently tagged copies in C. crescentus strain EG2452 (3xFLAG‐FzlA and mCherry‐FzlA), A0A0H3CDY2 1-228 (protein)
chain: T1 chain
- binding [2]: binds

— paper PMC5760450, “FzlA, an essential regulator of FtsZ filament curvature, controls constriction rate during Caulobacter division” (Molecular Microbiology, 2017)
